Data as given in PubChem BioAssay AID504744 (Drosophila RNAi Screening Center, 2011)
In all, the deposit lists about 23,000 reagents; this is an unselected part of those with a known target gene and a result. Over the whole deposit, 98 (0.43%) are marked active. 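Only hit calls are given; the phospho-dAkt signals, z-scores and hit direction were not deposited.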 Reagents against one gene are numbered here. A plus sign joins genes that one reagent is predicted to hit.

- Aim: 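Uncover factors, including feedback loops, that control dAkt activation in fly cells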 (primary screen)
- System: Drosophila Kc167 cells
- Reagent: long dsRNA against Drosophila genes, 250 ng dsRNA per well of a 384-well plate
- Duration: 3 days of knock-down, then overnight serum-free starvation before stimulation
- Conditions: bovine insulin at 387 nM for 10 minutes after 12 h without serum
- Detection: 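In-cell antibody fluorescence for phospho-dAkt in each well over DNA-dye signal, with log2 residuals expressed as z-scores adjusted for cell count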
- Active means: 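Hit in the insulin screen when the two-replicate mean z-score is more extreme than plus or minus 2.5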

no.	predicted target	reagent no.	Call
1	Apt1 (Acyl-protein thioesterase 1)	1	inactive
2	CG32647	1	inactive
3	CG32647	2	inactive
4	Elovl7 (ELOVL fatty acid elongase 7)	1	inactive
5	Elovl7 (ELOVL fatty acid elongase 7)	2	inactive
6	CG30377	1	inactive
7	CG30377	2	inactive
8	gw (gawky)	1	inactive
9	gw (gawky)	2	inactive
10	CG5721	1	inactive
11	Ugt36E1 (UDP-glycosyltransferase family 36 member E1)	1	inactive
12	Acat2 (Acetyl-CoA acetyltransferase 2)	1	inactive
13	Cand1 (Cullin-associated and neddylation-dissociated 1)	1	inactive
14	CR42785 (pseudo)	1	inactive
15	Ahcy (Adenosylhomocysteinase)	1	inactive
16	RhoGAP15B (Rho GTPase activating protein at 15B)	1	inactive
17	RhoGAP15B (Rho GTPase activating protein at 15B)	2	inactive
18	Nt5c (5' nucleotidase C)	1	inactive
19	bt (bent)	1	inactive
20	bt (bent)	2	inactive
21	betaGlu (beta glucuronidase)	1	inactive
22	CG3223	1	inactive
23	CG17764	1	inactive
24	Nepl21 (Neprilysin-like 21)	1	inactive
25	stil (stand still)	1	inactive
26	CG31473	1	inactive
27	CG5653	1	inactive
28	CG14966	1	inactive
29	Sirt7 (Sirtuin 7)	1	inactive
30	CG8833	1	inactive
31	inc (insomniac)	1	inactive
32	inc (insomniac)	2	inactive
33	Tmtc4 (Transmembrane O-mannosyltransferase targeting cadherins 4)	1	inactive
34	CtsL3 (Cathepsin L3)	1	inactive
35	CG10151	1	inactive
36	Tfb1 (Transcription factor B1)	1	inactive
37	Efhc1.2 (EF-hand domain containing 1.2)	1	inactive
38	Pc (Polycomb)	1	inactive
39	tutl (turtle)	1	inactive
40	tutl (turtle)	2	inactive
41	tutl (turtle)	3	inactive
42	RhoBTB (Rho-related BTB domain containing)	1	inactive
43	CG13332	1	inactive
44	CG4467	1	inactive
45	CG4763	1	inactive
46	CG4763	2	inactive
47	CG6225	1	inactive
48	nub (nubbin)	1	inactive
49	nub (nubbin)	2	inactive
50	nub (nubbin)	3	inactive
51	nub (nubbin)	4	inactive
52	tst + CG10375	1	inactive
53	Ctu2 (Cytosolic thiouridylase subunit 2)	1	inactive
54	CG13026	1	inactive
55	mRpS11 (mitochondrial ribosomal protein S11)	1	inactive
56	CG9356	1	inactive
57	thetaTry (thetaTrypsin)	1	inactive
58	wtrw (water witch)	1	inactive
59	wtrw (water witch)	2	inactive
60	CG7551	1	inactive
61	spir (spire)	1	inactive
62	CG31517	1	inactive
63	Nrx-1 (Neurexin 1)	1	inactive
64	CG15253	1	inactive
65	betaNACtes3 (Nascent-associated complex beta-subunit-like, testis 3)	1	inactive
66	eIF2beta (eukaryotic translation initiation factor 2 subunit beta)	1	inactive
67	Diedel3 (Diedel 3)	1	inactive
68	CG9297	1	inactive
69	shop (shopper)	1	inactive
70	CG16922 (retired record)	1	inactive
71	pck (pickel)	1	inactive
72	Ube3a (Ubiquitin protein ligase E3A)	1	inactive
73	CG34026	1	inactive
74	Osi18 (Osiris 18)	1	inactive
75	CG31915	1	inactive
76	Gfat1 (Glutamine:fructose-6-phosphate aminotransferase 1)	1	inactive
77	MED18 (Mediator complex subunit 18)	1	inactive
78	CG12483	1	inactive
79	mthl9 (methuselah-like 9)	1	inactive
80	cdm (cadmus)	1	inactive
81	Polr1B (RNA polymerase I subunit B)	1	inactive
82	spag (spaghetti)	1	inactive
83	CG5758	1	inactive
84	CG5758	2	inactive
85	CG12480	1	inactive
86	Golgin245 (Golgin-245)	1	inactive
87	Golgin245 (Golgin-245)	2	inactive
88	CG14357	1	inactive
89	mAChR-A (muscarinic Acetylcholine Receptor, A-type)	1	inactive
90	Kua	1	inactive
91	CG11663	1	inactive
92	Cht9 (Chitinase 9)	1	inactive
93	CG1246	1	inactive
94	oc (ocelliless)	1	inactive
95	Ptr (Patched-related)	1	inactive
96	Ptr (Patched-related)	2	inactive
97	Pcyt2 (Phosphocholine cytidylyltransferase 2)	1	inactive
98	CG11619	1	inactive
99	CG12507	1	inactive
100	PLCXD	1	inactive
101	dtr (defective transmitter release)	1	inactive
102	CG30016	1	inactive
103	Lip4 (Lipase 4)	1	inactive
104	CG34248	1	inactive
105	neo (neyo)	1	inactive
106	CG14722	1	inactive
107	CG31140	1	inactive
108	CG31140	2	inactive
109	CG31140	3	inactive
110	CG13436	1	inactive
111	phtm (phantom)	1	inactive
112	CG33768	1	inactive
113	CG18266	1	inactive
114	Polr3H (RNA polymerase III subunit H)	1	inactive
115	Mgat4b	1	inactive
116	TTLL15 (Tubulin tyrosine ligase-like 15)	1	inactive
117	eIF1 (eukaryotic translation initiation factor 1)	1	inactive
118	dnc (dunce)	1	inactive
119	dnc (dunce)	2	inactive
120	dnc (dunce)	3	inactive
121	dnc (dunce)	4	inactive
122	dnc (dunce)	5	inactive
123	CG1273	1	inactive
124	CG42383	1	inactive
125	Galphas (G protein alpha subunit s)	1	inactive
126	Myb (Myb oncogene-like)	1	inactive
127	nesd (nessun dorma)	1	inactive
128	CG1688	1	inactive
129	CG17816	1	inactive
130	CG33144	1	inactive
131	CG33144	2	inactive
132	Adar (Adenosine deaminase acting on RNA)	1	inactive
133	tacc (transforming acidic coiled-coil protein)	1	inactive
134	tacc (transforming acidic coiled-coil protein)	2	inactive
135	gl (glass)	1	inactive
136	knk (knickkopf)	1	inactive
137	Skadu	1	inactive
138	dhd (deadhead)	1	inactive
139	cv-d (crossveinless d)	1	inactive
140	cv-d (crossveinless d)	2	inactive
141	cv-d (crossveinless d)	3	inactive
142	Mob2	1	inactive
143	Mob2	2	inactive
144	Mob2	3	inactive
145	CG32708	1	inactive
146	SWIP (Strumpellin and WASH-interacting protein)	1	inactive
147	mRpL43 (mitochondrial ribosomal protein L43)	1	inactive
148	mRpL43 (mitochondrial ribosomal protein L43)	2	inactive
149	CheA7a (Chemosensory protein A 7a)	1	inactive
150	Trim9 (Tripartite motif containing 9)	1	inactive
151	tow (target of wingless)	1	inactive
152	CG9312	1	inactive
153	CstF64 (Cleavage stimulation factor 64 kD subunit)	1	inactive
154	RpL41 (Ribosomal protein L41)	1	inactive
155	ZnT77C (Zinc transporter 77C)	1	inactive
156	ZnT77C (Zinc transporter 77C)	2	inactive
157	CR30409 (pseudo)	1	inactive
158	CG32271	1	inactive
159	Ir52b (Ionotropic receptor 52b)	1	inactive
160	betaTub56D (beta-Tubulin at 56D)	1	inactive
161	fzo (fuzzy onions)	1	inactive
162	Acsx4 (Acyl-CoA synthetase X4)	1	inactive
163	CG7968	1	inactive
164	Crag	1	inactive
165	Jhbp12 (Juvenile hormone binding protein 12)	1	inactive
166	Karybeta3 (Karyopherin beta 3)	1	inactive
167	CG33791 + CG18170	1	inactive
168	CG33791 + CG18170	2	inactive
169	CG31345	1	inactive
170	CG31345	2	inactive
171	Ugt37B1 (UDP-glycosyltransferase family 37 member B1)	1	inactive
172	Mettl14 (Methyltransferase like 14)	1	inactive
173	CG13855	1	inactive
174	Grl36b (Gustatory receptor-like 36b)	1	inactive
175	Rdh (Red herring)	1	inactive
176	Rdh (Red herring)	2	inactive
177	CG13193	1	inactive
178	ago (archipelago)	1	inactive
179	Oatp33Eb (Organic anion transporting polypeptide 33Eb)	1	inactive
180	CR46300 (pseudo)	1	inactive
181	Cpr72Eb (Cuticular protein 72Eb)	1	inactive
182	CG14855	1	inactive
183	Mad	1	inactive
184	grnd (grindelwald)	1	inactive
185	Ak3 (Adenylate kinase 3)	1	inactive
186	CG10863	1	inactive
187	CG12025	1	inactive
188	Trf4 (TBP-related factor 4)	1	inactive
189	CG17141	1	inactive
190	Btnd (Biotinidase)	1	inactive
191	CNT2 (Concentrative nucleoside transporter 2)	1	inactive
192	CG18581	1	inactive
193	CG14015	1	inactive
194	fra (frazzled)	1	inactive
195	jet (jetlag)	1	inactive
196	ND-B15 (NADH dehydrogenase (ubiquinone) B15 subunit)	1	inactive
197	Eig71Eh	1	inactive
198	CG18530	1	inactive
199	TTLL4A (Tubulin tyrosine ligase-like 4A)	1	inactive
200	Or71a (Odorant receptor 71a)	1	inactive
